Source: paper doi:10.1101/2021.06.10.447992
These are yes or no findings as the source states them, for the method shown. In cells and extracts the contact can be indirect. Here binding means that the protein was enriched with, or labelled near, the bait; the list need not be complete. Sequences can lack the tags named with a protein.

Biological target: T1, COA7 with a C-terminal Flag epitope, expressed in COA7 knockout HEK293T cells (human) (UniProt Q96BR5)
T1 sequence: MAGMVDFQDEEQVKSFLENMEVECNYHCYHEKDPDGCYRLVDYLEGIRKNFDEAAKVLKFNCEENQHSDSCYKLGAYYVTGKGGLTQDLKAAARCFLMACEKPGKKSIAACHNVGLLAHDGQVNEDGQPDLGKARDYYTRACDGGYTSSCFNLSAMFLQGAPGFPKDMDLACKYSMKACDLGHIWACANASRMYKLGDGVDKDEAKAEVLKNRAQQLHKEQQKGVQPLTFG
Assay: affinity purification with mass spectrometry

binding: binds
Substance: disaggregase CLPB (human (endogenous in HEK293T))
